Source: PubChem BioAssay AID652054 (National Center for Advancing Translational Sciences (NCATS), 2013)
Among all 360,000 compounds or so, about 9,100 (2.5%) were called active. Inconclusive means that the source gave no clear call. Such entries were picked first, then a sample of the others. No stated cut-off is given here; in the data, active means max response below about -50%; inconclusive means no clear call, values can overlap the other calls; inactive means above that.

Sequences of proteins named here, by UniProt entry; tags and fusion partners are left off.
UniProt P35462, whole entry, looked up: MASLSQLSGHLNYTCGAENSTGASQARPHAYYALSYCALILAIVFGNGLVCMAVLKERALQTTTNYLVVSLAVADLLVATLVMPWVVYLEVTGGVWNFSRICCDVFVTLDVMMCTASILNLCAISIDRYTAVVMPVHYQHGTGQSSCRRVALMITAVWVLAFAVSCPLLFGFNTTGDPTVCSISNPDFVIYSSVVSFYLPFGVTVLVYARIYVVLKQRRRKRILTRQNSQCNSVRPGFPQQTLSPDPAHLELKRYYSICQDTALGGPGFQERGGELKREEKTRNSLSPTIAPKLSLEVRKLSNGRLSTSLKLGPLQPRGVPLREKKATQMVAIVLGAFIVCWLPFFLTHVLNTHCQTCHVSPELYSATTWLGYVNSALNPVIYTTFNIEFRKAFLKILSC

target: D(3) dopamine receptor (Homo sapiens) (UniProt P35462); assay: qHTS of D3 Dopamine Receptor Antagonist: qHTS; conditions: D3R cells, DiscoveRx beta-arrestin luminescence, antagonist mode; hits give low values
In short: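 Cells expressing the human receptor were seeded at 1500 cells/well, incubated overnight at 37 degrees C in 5% CO2, then exposed to library compounds with dopamine controls for 90 minutes at 37 degrees C before luminescent detection.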
On the % scale 0 is the no-effect control and ±100 the full control effect.

| Structure (SMILES) | max response, negative = inhibition |
| --- | --- |
| Nc1nc(-c2ccc(Br)cc2)cs1 | inconclusive: -43.6% |
| N#Cc1c(-c2ccccc2)nc(N2CCN(Cc3ccccc3)CC2)[nH]c1=O | inactive: 1.72% |
| CCCN1C2CCCC1CC(NC(=O)C1CCCCC1)C2 (stereo not drawn) | inconclusive: -46.3% |
| Cc1cc(C)cc(NC(=O)CSc2nc3c(c(=O)n2C)SC(C)C3)c1 (stereo not drawn) | inconclusive: -35.6% |
| Cc1nn(S(=O)(=O)c2ccc([N+](=O)[O-])cc2)c(C)c1Sc1ccccc1 | inconclusive: -32.6% |
| CN(C)c1cccc(CNC(=O)c2csc([C@@H]3C[C@H](O)[C@@H](CO)O3)n2)c1 | inconclusive: -34.6% |
| Cc1ccc(S(=O)(=O)N(CC(=O)N/N=C/c2cccc(C)c2)c2cccc3cccnc23)cc1 | inactive: -12.8% |
| CC(c1ccc2ccccc2c1)c1ccccc1C(=O)O (stereo not drawn) | inactive: -14.9% |
| C[C@H]1CN([C@@H](C)CO)C(=O)CCCn2nncc2CO[C@@H]1CN(C)C(=O)Cc1ccccc1 | inactive: -21.6% |
| CCN(CC)CCNc1c(C)cc(CO)c(Cl)c1C | inconclusive: -33% |
| COc1cc(CNC(=O)OC2CC3CC2[C@H]2CCCCN2C3=O)cc(OC)c1 (stereo partly drawn) | inactive: -3.93% |
| Cc1ccccc1N1CCN(CCCCN2C(=O)C3CCCN3C2=O)CC1 (stereo not drawn) | active: -84.1% |
| O=C1CCCc2ccccc2N1Cc1cccc(Cl)c1 | inconclusive: -46% |
| COc1cc(/C(C)=N/NC(=O)c2cccc(S(=O)(=O)N3CCCC3)c2)cc(OC)c1OC | inactive: -18.9% |
| CN1CCN(C(=O)CCN2C(=O)/C(=C\c3ccc(Cl)cc3Cl)SC2=S)CC1 | inconclusive: -32.4% |
| CC[C@]12c3[nH]c4cc(-c5ccco5)ccc4c3CCN1C(=O)[C@@H](CC(=O)NCCN1CCOCC1)C[C@@H]2C(=O)N1CCN(C(=O)c2ccco2)CC1 | inactive: 6.8% |
| Cn1c(NCC(O)c2ccccc2)nc2c1c(=O)n(Cc1ccc(Cl)c(Cl)c1)c(=O)n2C (stereo not drawn) | inconclusive: -34.9% |
| CCOc1ccc2nc(SCC(=O)Nc3cccc(S(=O)(=O)NC4=NCCCCC4)c3)[nH]c2c1 | inconclusive: -45.8% |
| Cc1ccccc1-n1nc(C)c2c(C(=O)NN)cc(-c3ccncc3)nc21 | inconclusive: -37.9% |
| CC1CCCN(C(=S)Nc2ccc3nc4n(c(=O)c3c2)CCCCC4)C1 (stereo not drawn) | inconclusive: -34.3% |
| COc1ccc(C2C(C(=O)c3sc(C)nc3C)=C(O)C(=O)N2CCN(C)C)cc1 (stereo not drawn) | inconclusive: -40.9% |
| CCOC(=O)c1sc(NC(=S)NC(=O)CC(C)C)cc1C | active: -78.3% |
| Cc1cccc(OCCCCCN2CCOCC2)c1 | inconclusive: -34.5% |

2 entries picked at random from the list so far, as already listed:

| Structure (SMILES) | max response, negative = inhibition |
| --- | --- |
| COc1cc(/C(C)=N/NC(=O)c2cccc(S(=O)(=O)N3CCCC3)c2)cc(OC)c1OC | inactive: -18.9% |
| CCOC(=O)c1sc(NC(=S)NC(=O)CC(C)C)cc1C | active: -78.3% |
